Assay results: PMC3608554

Target: T1, PLCg2-V5 (human) (UniProt P16885)
T1 sequence: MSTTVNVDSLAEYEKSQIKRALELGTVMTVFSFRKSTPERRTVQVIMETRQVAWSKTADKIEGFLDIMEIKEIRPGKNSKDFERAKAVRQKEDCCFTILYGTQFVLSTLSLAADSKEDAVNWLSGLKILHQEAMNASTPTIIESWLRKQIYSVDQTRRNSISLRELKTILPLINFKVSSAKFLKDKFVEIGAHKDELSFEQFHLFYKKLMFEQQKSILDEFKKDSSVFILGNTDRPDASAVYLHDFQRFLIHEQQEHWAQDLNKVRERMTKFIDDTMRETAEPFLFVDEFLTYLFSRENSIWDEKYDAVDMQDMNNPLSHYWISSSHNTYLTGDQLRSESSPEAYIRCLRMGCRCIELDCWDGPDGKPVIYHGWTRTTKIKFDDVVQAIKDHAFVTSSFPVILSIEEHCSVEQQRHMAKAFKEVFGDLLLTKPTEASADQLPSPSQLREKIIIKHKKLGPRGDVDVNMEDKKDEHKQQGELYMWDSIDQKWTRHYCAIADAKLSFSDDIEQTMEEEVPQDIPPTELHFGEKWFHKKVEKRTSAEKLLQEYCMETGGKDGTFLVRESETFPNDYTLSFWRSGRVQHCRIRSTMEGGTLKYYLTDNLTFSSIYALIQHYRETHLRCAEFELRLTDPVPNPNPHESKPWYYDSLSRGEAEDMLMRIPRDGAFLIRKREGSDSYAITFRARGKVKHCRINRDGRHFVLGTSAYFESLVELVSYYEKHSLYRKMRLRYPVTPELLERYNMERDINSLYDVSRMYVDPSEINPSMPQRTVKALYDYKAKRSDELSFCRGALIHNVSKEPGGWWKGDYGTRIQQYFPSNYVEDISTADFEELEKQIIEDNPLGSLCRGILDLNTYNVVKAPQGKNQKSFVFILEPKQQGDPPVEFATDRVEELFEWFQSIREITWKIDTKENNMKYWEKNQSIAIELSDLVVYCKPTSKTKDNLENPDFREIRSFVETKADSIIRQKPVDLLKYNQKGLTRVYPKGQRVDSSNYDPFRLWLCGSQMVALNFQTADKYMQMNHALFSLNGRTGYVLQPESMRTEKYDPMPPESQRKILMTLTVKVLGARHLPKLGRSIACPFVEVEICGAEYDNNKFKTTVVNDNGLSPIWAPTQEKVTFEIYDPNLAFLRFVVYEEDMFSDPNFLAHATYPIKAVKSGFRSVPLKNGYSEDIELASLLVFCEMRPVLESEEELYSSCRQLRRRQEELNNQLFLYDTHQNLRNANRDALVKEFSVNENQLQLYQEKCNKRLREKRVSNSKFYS
Test: co-IP; HEK293T co-expressing the two BANK1 isoforms (FL and D2); IP anti-PLCg2; kinase co-expression not stated

binding: binds
Substance: BANK1 short isoform (D2) lacking the second exon (human)

These are yes or no findings as the source states them, for the method shown. Binding seen in cells or lysates may run through a third protein. Binding calls can cover weak binding; strength is not graded here. Where a sequence is shown, tags or fusion partners need not be part of it.
